These are yes or no findings as the source states them, for the method shown. For some assays here: In cells and extracts the contact can be indirect. Some results given as binding are weak or reduced against the parent protein; the word gives no strength. For some assays here: Where a sequence is shown, tags or fusion partners need not be part of it. Each block holds one molecule with its values, some of them ahead of it.
Columns and labels:
CBP-Flag = CBP-Flag (UniProt Q92793); assay: pull-down; CBP-Flag immunoprecipitated from 293T lysates on anti-Flag affinity gel, incubated with purified β-catenin-GST (100 ng) and SHCBP1-HA protein at indicated concentrations for 2 h, washed six times, immunoblot for Flag, GST and HA; both purified
SHCBP1-HA (human) = biological target: T1, SHCBP1-HA (human) (UniProt Q8NEM2); assay: pull-down; modified peptide pull-down: FLAG-β-catenin purified from 293T extracts incubated with SHCBP1-HA affinity agarose beads for 4 h at 4 °C, washed, immunoblot with anti-FLAG antibody; both purified
T1 sequence: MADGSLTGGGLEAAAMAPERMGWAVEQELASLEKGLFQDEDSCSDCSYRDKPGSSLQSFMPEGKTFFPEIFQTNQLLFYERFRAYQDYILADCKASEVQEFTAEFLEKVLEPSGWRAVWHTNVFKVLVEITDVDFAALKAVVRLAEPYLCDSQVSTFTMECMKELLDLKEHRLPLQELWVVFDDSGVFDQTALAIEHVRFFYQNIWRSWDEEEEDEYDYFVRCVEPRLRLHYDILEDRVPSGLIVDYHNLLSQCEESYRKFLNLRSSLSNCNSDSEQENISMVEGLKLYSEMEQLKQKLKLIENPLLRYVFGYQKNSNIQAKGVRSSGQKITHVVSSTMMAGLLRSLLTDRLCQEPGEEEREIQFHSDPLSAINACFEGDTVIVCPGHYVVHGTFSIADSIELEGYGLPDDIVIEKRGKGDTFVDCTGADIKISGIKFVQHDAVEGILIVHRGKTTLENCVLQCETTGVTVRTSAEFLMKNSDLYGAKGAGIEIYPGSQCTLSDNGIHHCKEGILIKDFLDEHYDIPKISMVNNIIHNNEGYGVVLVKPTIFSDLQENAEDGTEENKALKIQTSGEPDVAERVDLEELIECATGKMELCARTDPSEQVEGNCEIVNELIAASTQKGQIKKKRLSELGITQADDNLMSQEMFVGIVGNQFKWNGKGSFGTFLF

The chains behind the UniProt entries cited, without tags or fusion partners.
UniProt Q92793: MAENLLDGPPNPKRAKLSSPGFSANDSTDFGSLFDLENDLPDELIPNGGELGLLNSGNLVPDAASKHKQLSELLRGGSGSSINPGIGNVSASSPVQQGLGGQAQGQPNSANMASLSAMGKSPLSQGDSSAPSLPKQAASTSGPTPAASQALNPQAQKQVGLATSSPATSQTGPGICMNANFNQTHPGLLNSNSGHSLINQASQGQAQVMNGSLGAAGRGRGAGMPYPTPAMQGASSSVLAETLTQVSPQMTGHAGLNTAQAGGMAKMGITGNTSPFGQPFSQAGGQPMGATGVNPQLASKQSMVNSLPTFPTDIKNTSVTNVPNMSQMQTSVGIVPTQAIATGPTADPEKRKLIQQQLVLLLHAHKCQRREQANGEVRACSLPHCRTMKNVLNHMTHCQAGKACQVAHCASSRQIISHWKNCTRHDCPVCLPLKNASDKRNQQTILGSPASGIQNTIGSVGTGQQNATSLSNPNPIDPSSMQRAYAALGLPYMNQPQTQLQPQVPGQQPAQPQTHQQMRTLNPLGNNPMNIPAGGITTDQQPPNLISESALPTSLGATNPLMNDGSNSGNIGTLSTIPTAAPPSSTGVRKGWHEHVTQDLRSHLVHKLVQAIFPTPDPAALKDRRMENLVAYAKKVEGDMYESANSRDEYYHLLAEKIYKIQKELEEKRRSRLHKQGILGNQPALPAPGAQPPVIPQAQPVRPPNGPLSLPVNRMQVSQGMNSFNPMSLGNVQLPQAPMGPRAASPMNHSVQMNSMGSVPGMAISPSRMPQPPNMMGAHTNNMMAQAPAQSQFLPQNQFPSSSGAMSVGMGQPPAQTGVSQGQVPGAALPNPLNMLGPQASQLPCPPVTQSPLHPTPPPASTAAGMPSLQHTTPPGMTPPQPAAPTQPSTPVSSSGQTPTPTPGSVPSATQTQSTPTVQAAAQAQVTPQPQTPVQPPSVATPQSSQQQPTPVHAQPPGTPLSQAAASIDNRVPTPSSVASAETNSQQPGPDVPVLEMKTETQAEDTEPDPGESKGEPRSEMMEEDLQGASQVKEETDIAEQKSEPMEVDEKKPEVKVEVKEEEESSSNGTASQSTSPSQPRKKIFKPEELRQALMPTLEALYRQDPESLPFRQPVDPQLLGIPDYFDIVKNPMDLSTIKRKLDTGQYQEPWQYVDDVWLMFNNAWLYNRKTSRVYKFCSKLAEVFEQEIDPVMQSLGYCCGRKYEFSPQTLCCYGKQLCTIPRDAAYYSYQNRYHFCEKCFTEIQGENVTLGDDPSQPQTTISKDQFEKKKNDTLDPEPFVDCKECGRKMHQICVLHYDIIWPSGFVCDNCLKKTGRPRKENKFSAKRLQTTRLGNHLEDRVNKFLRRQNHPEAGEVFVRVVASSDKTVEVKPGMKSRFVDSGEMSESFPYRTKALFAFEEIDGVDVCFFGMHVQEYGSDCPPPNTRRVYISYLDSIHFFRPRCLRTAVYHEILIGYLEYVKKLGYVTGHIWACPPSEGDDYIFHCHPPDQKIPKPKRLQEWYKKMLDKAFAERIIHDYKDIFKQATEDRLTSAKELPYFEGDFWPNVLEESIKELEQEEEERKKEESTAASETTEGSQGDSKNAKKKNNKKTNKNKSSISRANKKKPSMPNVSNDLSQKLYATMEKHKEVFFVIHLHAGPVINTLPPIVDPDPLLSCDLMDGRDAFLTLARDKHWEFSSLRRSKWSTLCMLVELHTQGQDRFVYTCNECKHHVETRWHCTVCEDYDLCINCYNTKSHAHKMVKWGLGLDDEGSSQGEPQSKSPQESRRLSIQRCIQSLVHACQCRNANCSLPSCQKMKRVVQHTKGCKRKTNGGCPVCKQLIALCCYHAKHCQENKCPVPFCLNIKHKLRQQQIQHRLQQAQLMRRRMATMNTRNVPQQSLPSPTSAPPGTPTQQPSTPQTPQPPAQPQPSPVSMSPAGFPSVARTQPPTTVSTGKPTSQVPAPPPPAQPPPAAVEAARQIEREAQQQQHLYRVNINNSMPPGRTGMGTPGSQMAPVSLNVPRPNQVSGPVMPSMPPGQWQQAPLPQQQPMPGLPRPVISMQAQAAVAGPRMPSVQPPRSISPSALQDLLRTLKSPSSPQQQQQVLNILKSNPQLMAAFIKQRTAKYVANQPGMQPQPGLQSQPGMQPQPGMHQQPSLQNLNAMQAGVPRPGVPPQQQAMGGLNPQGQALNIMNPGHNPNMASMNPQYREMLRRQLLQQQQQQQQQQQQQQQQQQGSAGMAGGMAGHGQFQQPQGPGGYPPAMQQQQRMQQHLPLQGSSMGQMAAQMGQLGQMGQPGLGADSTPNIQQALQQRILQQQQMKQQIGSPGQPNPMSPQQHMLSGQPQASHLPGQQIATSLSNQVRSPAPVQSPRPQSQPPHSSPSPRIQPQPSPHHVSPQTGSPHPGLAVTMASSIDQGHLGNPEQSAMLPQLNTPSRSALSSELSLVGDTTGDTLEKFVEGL
UniProt P35222: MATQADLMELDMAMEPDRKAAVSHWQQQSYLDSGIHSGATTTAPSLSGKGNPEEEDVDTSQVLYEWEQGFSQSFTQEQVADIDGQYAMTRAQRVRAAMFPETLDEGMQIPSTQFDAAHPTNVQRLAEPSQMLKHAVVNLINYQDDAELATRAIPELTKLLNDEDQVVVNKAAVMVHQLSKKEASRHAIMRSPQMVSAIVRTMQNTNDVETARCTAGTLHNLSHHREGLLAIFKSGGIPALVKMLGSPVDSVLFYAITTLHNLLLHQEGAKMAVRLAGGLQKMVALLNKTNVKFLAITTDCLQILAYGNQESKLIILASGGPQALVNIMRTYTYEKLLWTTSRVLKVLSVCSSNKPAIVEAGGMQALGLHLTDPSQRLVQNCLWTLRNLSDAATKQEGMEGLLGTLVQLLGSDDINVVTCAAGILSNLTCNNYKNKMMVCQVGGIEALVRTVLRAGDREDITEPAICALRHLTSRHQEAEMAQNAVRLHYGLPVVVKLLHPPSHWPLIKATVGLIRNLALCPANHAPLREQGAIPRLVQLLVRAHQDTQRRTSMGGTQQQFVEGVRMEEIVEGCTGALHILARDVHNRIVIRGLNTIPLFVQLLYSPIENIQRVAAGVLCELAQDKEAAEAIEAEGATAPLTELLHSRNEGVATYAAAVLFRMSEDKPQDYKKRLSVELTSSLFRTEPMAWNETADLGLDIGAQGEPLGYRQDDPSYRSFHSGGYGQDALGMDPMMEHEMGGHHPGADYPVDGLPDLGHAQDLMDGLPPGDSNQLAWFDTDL

[1] = biological target: CBP (human (endogenous in 293T, A549)) (UniProt Q92793); assay: co-IP; nuclear extracts of 293T and A549 cells with or without EGF; HCC827 and HCC4006 cells with or without gefitinib; also with SHCBP1 siRNA, ectopic SHCBP1 or ICG-001
HA-β-catenin = HA-β-catenin (UniProt P35222); assay: co-IP; FLAG-tagged serially truncated SHCBP1 constructs and HA-β-catenin co-transfected in 293T
[2] = substrate: CBP (human (endogenous in 293T, A549)) (UniProt Q92793); assay: pull-down; modified in vitro peptide pull-down: purified Flag-SHCBP1 incubated with a 293T extraction, immunoblot with anti-Flag antibody; only the binder purified
[3] = biological target: β-catenin (human (endogenous in 293T, A549, HCC827, HCC4006)) (UniProt P35222); assay: co-IP; 293T and A549 cells, with and without EGF stimulation; western blot (Fig. 1g, 1i)
[4] = biological target: T2, SHC adaptor protein 1 (SHC1) (human (endogenous in 293T, A549)) (UniProt P29353); assay: co-IP; immunoprecipitation against SHC1, western blot for SHCBP1; 293T and A549 cells without EGF; with or without EGFR depletion
T2 sequence: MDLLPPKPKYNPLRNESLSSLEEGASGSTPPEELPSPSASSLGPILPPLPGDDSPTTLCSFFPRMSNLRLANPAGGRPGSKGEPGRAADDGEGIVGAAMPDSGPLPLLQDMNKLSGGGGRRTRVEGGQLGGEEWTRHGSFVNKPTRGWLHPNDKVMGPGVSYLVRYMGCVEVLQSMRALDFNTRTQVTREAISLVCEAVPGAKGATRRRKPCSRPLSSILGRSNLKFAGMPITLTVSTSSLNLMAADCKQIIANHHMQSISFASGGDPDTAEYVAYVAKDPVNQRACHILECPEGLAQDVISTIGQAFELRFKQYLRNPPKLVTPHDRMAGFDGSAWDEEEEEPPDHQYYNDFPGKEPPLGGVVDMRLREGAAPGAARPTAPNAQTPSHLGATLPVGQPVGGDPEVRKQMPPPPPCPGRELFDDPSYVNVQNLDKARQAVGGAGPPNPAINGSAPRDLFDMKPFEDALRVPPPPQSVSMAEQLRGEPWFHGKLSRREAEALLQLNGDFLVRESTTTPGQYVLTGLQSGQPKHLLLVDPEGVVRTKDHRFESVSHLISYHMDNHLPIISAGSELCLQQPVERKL

[5] = biological target: β-catenin (human (endogenous in 293T, A549, HCC827, HCC4006)) (UniProt P35222); assay: co-IP; nuclear extracts of 293T and A549 cells with or without EGF; HCC827 and HCC4006 cells with or without gefitinib; also with SHCBP1 siRNA, ectopic SHCBP1 or ICG-001

Molecule: β-catenin-GST (from UniProt P35222 1-781)
binding (CBP-Flag): binds

Molecule: FLAG-β-catenin (from UniProt P35222 1-781)
binding (SHCBP1-HA (human)): binds

B1: FLAG-tagged truncated SHCBP1 (1–428) (domain or fragment, UniProt Q8NEM2 1-428)
chain: MADGSLTGGGLEAAAMAPERMGWAVEQELASLEKGLFQDEDSCSDCSYRDKPGSSLQSFMPEGKTFFPEIFQTNQLLFYERFRAYQDYILADCKASEVQEFTAEFLEKVLEPSGWRAVWHTNVFKVLVEITDVDFAALKAVVRLAEPYLCDSQVSTFTMECMKELLDLKEHRLPLQELWVVFDDSGVFDQTALAIEHVRFFYQNIWRSWDEEEEDEYDYFVRCVEPRLRLHYDILEDRVPSGLIVDYHNLLSQCEESYRKFLNLRSSLSNCNSDSEQENISMVEGLKLYSEMEQLKQKLKLIENPLLRYVFGYQKNSNIQAKGVRSSGQKITHVVSSTMMAGLLRSLLTDRLCQEPGEEEREIQFHSDPLSAINACFEGDTVIVCPGHYVVHGTFSIADSIELEGYGLPDDIVIEKRGKGDTFVDCTG
binding (HA-β-catenin): binds

B2: Flag-tagged SHCBP1 (protein, UniProt Q8NEM2 1-672)
chain: MADGSLTGGGLEAAAMAPERMGWAVEQELASLEKGLFQDEDSCSDCSYRDKPGSSLQSFMPEGKTFFPEIFQTNQLLFYERFRAYQDYILADCKASEVQEFTAEFLEKVLEPSGWRAVWHTNVFKVLVEITDVDFAALKAVVRLAEPYLCDSQVSTFTMECMKELLDLKEHRLPLQELWVVFDDSGVFDQTALAIEHVRFFYQNIWRSWDEEEEDEYDYFVRCVEPRLRLHYDILEDRVPSGLIVDYHNLLSQCEESYRKFLNLRSSLSNCNSDSEQENISMVEGLKLYSEMEQLKQKLKLIENPLLRYVFGYQKNSNIQAKGVRSSGQKITHVVSSTMMAGLLRSLLTDRLCQEPGEEEREIQFHSDPLSAINACFEGDTVIVCPGHYVVHGTFSIADSIELEGYGLPDDIVIEKRGKGDTFVDCTGADIKISGIKFVQHDAVEGILIVHRGKTTLENCVLQCETTGVTVRTSAEFLMKNSDLYGAKGAGIEIYPGSQCTLSDNGIHHCKEGILIKDFLDEHYDIPKISMVNNIIHNNEGYGVVLVKPTIFSDLQENAEDGTEENKALKIQTSGEPDVAERVDLEELIECATGKMELCARTDPSEQVEGNCEIVNELIAASTQKGQIKKKRLSELGITQADDNLMSQEMFVGIVGNQFKWNGKGSFGTFLF
binding [2]: binds

Second part, the molecule after the results:

binding [1]: binds
Molecule: β-catenin (from UniProt P35222 1-781)

binding [3]: binds
binding [4]: binds
binding [5]: binds
B3: SHC-binging protein 1 (SHCBP1) (protein, UniProt Q8NEM2 1-672)
chain: MADGSLTGGGLEAAAMAPERMGWAVEQELASLEKGLFQDEDSCSDCSYRDKPGSSLQSFMPEGKTFFPEIFQTNQLLFYERFRAYQDYILADCKASEVQEFTAEFLEKVLEPSGWRAVWHTNVFKVLVEITDVDFAALKAVVRLAEPYLCDSQVSTFTMECMKELLDLKEHRLPLQELWVVFDDSGVFDQTALAIEHVRFFYQNIWRSWDEEEEDEYDYFVRCVEPRLRLHYDILEDRVPSGLIVDYHNLLSQCEESYRKFLNLRSSLSNCNSDSEQENISMVEGLKLYSEMEQLKQKLKLIENPLLRYVFGYQKNSNIQAKGVRSSGQKITHVVSSTMMAGLLRSLLTDRLCQEPGEEEREIQFHSDPLSAINACFEGDTVIVCPGHYVVHGTFSIADSIELEGYGLPDDIVIEKRGKGDTFVDCTGADIKISGIKFVQHDAVEGILIVHRGKTTLENCVLQCETTGVTVRTSAEFLMKNSDLYGAKGAGIEIYPGSQCTLSDNGIHHCKEGILIKDFLDEHYDIPKISMVNNIIHNNEGYGVVLVKPTIFSDLQENAEDGTEENKALKIQTSGEPDVAERVDLEELIECATGKMELCARTDPSEQVEGNCEIVNELIAASTQKGQIKKKRLSELGITQADDNLMSQEMFVGIVGNQFKWNGKGSFGTFLF

Source: PMC6355651
